Taken from: PubChem BioAssay AID1259308 (NCATS, 2017)

Assay: 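Knock-downs that increase output of a recombinant reporter protein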 (primary screen)
Cell system: human HEK293 embryonic kidney cells stably expressing firefly luciferase (HEK-CMV-Luc2-Hygro)
Reagents: single siRNA against human genes, 0.8 pmol siRNA per well
Time to read-out: 72 h
Detection: 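Luciferase light (ONE-Glo) measured on one replicate plate set and viability (CellTiter-Glo) on the other, scaled to a negative control siRNA, with robust z-scores and luciferase per cell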
Scale: total luciferase, z-score: higher = more reporter protein produced
Hit rule: 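Active when the median/MAD z-score for overall luciferase is greater than 3; a gene was taken forward for validation with new siRNAs if at least two of its three siRNAs passed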
Meaning of the calls: active = raised luciferase; inactive = no rise
In all, the deposit lists about 59,000 reagents; this is a part drawn at random. Over the whole deposit, about 1,510 (2.6%) got an active call. 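Calls use total luciferase alone and ignore viability, so some active siRNAs may act by altering cell number.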 Reagents against one gene are numbered here. Further read-outs or replicates are left out here.

After knock-down of H2AC14 (GeneID 8331) #1, the screen gave total luciferase, z-score -0.454; inactive. After knock-down of H2AC14 (GeneID 8331) #2, the screen gave total luciferase, z-score -3.37; inactive. Depletion of H2AC14 (GeneID 8331) #3 gave: total luciferase, z-score -0.8; inactive. After knock-down of SNX22 (GeneID 79856) #1 the results were total luciferase, z-score -0.0829; inactive. SNX22 (GeneID 79856) #2 scored total luciferase, z-score -0.462; inactive. For SNX22 (GeneID 79856) #3, the entry reads total luciferase, z-score -0.318; inactive.

Depletion of RND1 (GeneID 27289) #1 came out at: total luciferase, z-score -0.813; inactive. Silencing of RND1 (GeneID 27289) #2 came out at: total luciferase, z-score 0.695; inactive. Silencing of RND1 (GeneID 27289) #3 came out at: total luciferase, z-score -0.76; inactive. After knock-down of RMP64 (GeneID 25871) #1, the screen gave total luciferase, z-score -0.781; inactive. Against RMP64 (GeneID 25871) #2 the deposit lists total luciferase, z-score 0.271; inactive. For RMP64 (GeneID 25871) #3 the deposit lists total luciferase, z-score -1.67; inactive.
